PubChem BioAssay AID504804, Drosophila RNAi Screening Center – 2011
Aim: 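dsRNAs that improve Kc cell survival under doxorubicin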 (primary screen). Cells: Drosophila Kc cells. Knock-down reagent: long dsRNA against Drosophila genes, 0.5 µg dsRNA per well. Timing: 96 h (48 h knock-down, then 48 h drug). Challenge: doxorubicin 5 µg/ml for 48 h, added 48 h after dsRNA. Detection: 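Luminescent ATP counts per replicate, not normalised, reflecting viable cells after 48 h dsRNA knock-down followed by 48 h of 5 µg/ml doxorubicin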. Direction: raw ATP luminescence: higher = more viable cells, protection from doxorubicin. Hit rule: 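z-score of 2 or more over plate mean in both duplicates, retained only when retests and separate dsRNAs confirm the protection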.
In all, the deposit lists about 19,000 reagents; below is an unselected part of those with a known target gene and a result. Of all reagents, 47 (0.25%) are marked active. 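Signals are raw, not normalised; exact z-scores behind calls not deposited; actives needed confirmation, so some wells reaching 2 SD are inactive.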 A number with no mark means an inactive call. Reagent sequences are not shown.

Depletion of Npl4 (Nuclear protein localization 4) resulted in: raw ATP luminescence, replicate 1 = 65510; raw ATP luminescence, replicate 2 = 62710.
After knock-down of Naa35 (N(alpha)-acetyltransferase 35), the record shows raw ATP luminescence, replicate 1 = 57090; raw ATP luminescence, replicate 2 = 61723.
Silencing of Agpat3 (1-Acylglycerol-3-phosphate O-acyltransferase 3) resulted in: raw ATP luminescence, replicate 1 = 24697; raw ATP luminescence, replicate 2 = 22450.
CG1552 showed raw ATP luminescence, replicate 1 = 3.41e5; raw ATP luminescence, replicate 2 = 3.41e5.
Depletion of bon (bonus) resulted in: raw ATP luminescence, replicate 1 = 56810; raw ATP luminescence, replicate 2 = 72390.
Mcr (Macroglobulin complement-related) gave raw ATP luminescence, replicate 1 = 1.19e5; raw ATP luminescence, replicate 2 = 74667.
Silencing of mRpL20 (mitochondrial ribosomal protein L20) resulted in: raw ATP luminescence, replicate 1 = 73740; raw ATP luminescence, replicate 2 = 70787.
Against pwn (pawn) the deposit lists raw ATP luminescence, replicate 1 = 57963; raw ATP luminescence, replicate 2 = 75570.
Depletion of tj (traffic jam) came out at: raw ATP luminescence, replicate 1 = 59567; raw ATP luminescence, replicate 2 = 51697.
For CG14879, the entry reads raw ATP luminescence, replicate 1 = 89930; raw ATP luminescence, replicate 2 = 73470.
After knock-down of zfh1 (Zn finger homeodomain 1), the screen gave raw ATP luminescence, replicate 1 = 1.98e5; raw ATP luminescence, replicate 2 = 1.85e5.
Depletion of Hsp26 (Heat shock protein 26) resulted in: raw ATP luminescence, replicate 1 = 37470; raw ATP luminescence, replicate 2 = 30993.
